The campaign covered roughly 330,000 compounds. About 7,700 (2.3%) were called active. Inconclusive means that the source gave no clear call. Such entries were picked first, then a sample of the others. Calls follow the shape of the dose curve; as a rule, active = well fitted inhibition curve with a large enough effect; inconclusive = small, poorly fitted or top-dose-only effect, or effect the other way; inactive = flat fitted curve, though single readings scatter. Potencies of inconclusive entries are doubtful fits and often do not repeat.
assay: qHTS screen for small molecules that inhibit ELG1-dependent DNA repair in human embryonic kidney (HEK293T) cells expressing luciferase-tagged ELG1; settings: HEK293T ELG1-luciferase reporter, luminescence, 16 h, DNA damage induced by 5-fluorouridine; activity change, negative = inhibition: at 46.1 µM (top of the series); also: nearly all actives have a fitted effect of over 55% in size
Outline: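 DMSO vehicle served as the neutral condition. Each well held 2,000 cells given 5-fluorouridine plus compound; after 16 hr at 37 °C/5% CO2, ONE-Glo was added and luciferase measured 30 min later.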
% is scaled to controls: 0 for no effect and ±100 for the full control effect; potency is read from the fitted curve at half-maximal effect.

Row | Compound | Potency | activity change, negative = inhibition
1 | CCCC(=O)Nc1ccc2c(c1)Cc1ccccc1-2 | inconclusive: 16.4 µM [activator, partial curve] | 
2 | COc1ccc(-n2c(=S)[nH]c3sc4c(c3c2=O)CCN(C)C4)cc1 |  | inactive: 0.301%
3 | CCC(C)(C)c1ccc(Oc2cccc(C(=O)O)c2)cc1 | inconclusive: 8.2 µM [activator, partial curve] | 
4 | CC(=O)Oc1ccc(C(=O)Nc2cccc(C(=O)c3cccc(NC(=O)c4ccc(OC(C)=O)cc4)c3)c2)cc1 | active: 23.1 µM | 
5 | O=C(N/N=C/C1C(c2ccccc2)C1(Cl)Cl)c1cccc(Cl)c1 (centres undefined) | inconclusive: 18.4 µM [activator, single point] | 
6 | O=C(c1n[nH]c2ccccc12)N1CCN(S(=O)(=O)c2ccc(Cl)cc2)CC1 |  | inactive: -8.12%
7 | C/C(N)=C(/C#N)C(=O)CSc1nnc(-c2ccc(OC(F)F)cc2)o1 | inconclusive: 7.31 µM [activator, partial curve] | 
8 | O=C(NCC1CCCO1)c1cnn2c1NC(c1ccccc1)CC2C(F)(F)F (centres undefined) |  | inactive: -13.7%
9 | O=C(COc1ccc(/C=N/NC(=O)CSCc2ccc([N+](=O)[O-])cc2)cc1)NCc1ccco1 | active: 23.1 µM | 
10 | COC(=O)CCNC(=O)c1nn(Cc2ccccc2)c(=O)c2ccccc12 |  | inactive: -2.84%
11 | Cc1cccc2cc(COC(=O)c3ccco3)c(=O)[nH]c12 |  | inactive: 6.74%
12 | Cc1cc(S(=O)(=O)NCC(c2ccc(F)cc2)N2CCN(C)CC2)ccc1F (centres undefined) |  | inactive: -21.7%
13 | COc1ccc(CC(=O)NNC(=O)c2cc(C)oc2C)cc1OC |  | inactive: 4.78%
14 | Cc1nc2c(-c3ccc(F)cc3)c(C)nn2c(C)c1CCC(=O)N1CCN(c2ccccn2)CC1 | inconclusive: 14.6 µM [inhibitor, single point] | 
15 | Cc1cc(C)n(-c2nc(NCCCN(C)C)c3c4c(sc3n2)CCCC4)n1 |  | inactive: 0%
16 | Cn1cc(C(=O)c2ccc(Cl)cc2Cl)cc1C(=O)O |  | inactive: 1.44%
17 | O=C(/C=C/c1ccccc1)OCC(=O)c1ccc[nH]1 | inconclusive: 13 µM [activator, partial curve] | 
18 | Cc1ccccc1C(=O)N1CCN(C(c2ccccc2)c2ccccc2)CC1 | inconclusive: 20.6 µM [inhibitor, single point] | 
19 | Cc1ccc(N2CCN(C3=NC(=O)/C(=C\c4cn[nH]c4-c4ccccc4)S3)CC2)cc1 | active: 1.64 µM | 
20 | CCOc1ccc2c(c1)C(N(CCN1CCOCC1)C(=S)Nc1ccccc1OC)CC(C)(C)O2 (centres undefined) |  | inactive: -8.05%
21 | Cc1ccc(S(=O)(=O)N2[C@@H](c3ccccc3F)C(C(=O)O)=CC[C@H]2c2ccc(Cl)c(Cl)c2)cc1 |  | inactive: 0.485%
22 | O=S(=O)(Cc1ccc(Cl)cc1)NCc1cccnc1 | inconclusive: 0.231 µM [inhibitor, single point] | 
23 | CCOC(=O)CNC(=O)CSc1ccc2nnc(-c3ccc(F)cc3)n2n1 |  | inactive: -9.56%
24 | CCOC(=O)c1ccc(NC(=O)COc2ccc(S(=O)(=O)N3CCCC3)cc2)cc1 | inconclusive: 32.6 µM [inhibitor, partial curve, poor fit] | 
25 | Cc1ccc(SCc2cn3cc(Cl)ccc3n2)cc1 | inconclusive: 20.6 µM [activator, partial curve, poor fit] | 

Row | Compound | Potency | activity change, negative = inhibition
26 | Cc1ccc(S(=O)(=O)NCCCCCC(=O)Nc2nccs2)cc1 | inconclusive: 23.1 µM [inhibitor, partial curve] | 
27 | O=C(COc1ccc2c(-c3ccccc3)cc(=O)oc2c1)NCCCn1ccnc1 | inconclusive: 0.73 µM [activator, single point] | 
28 | COc1ccc(/C=C2\SC(=N)N(c3nccs3)C2=O)cc1OC | inconclusive: 23.1 µM [activator, single point] | 
29 | Cc1ccc(C(=O)CCC2CCCC2=O)cc1 (centres undefined) | inconclusive: 18.4 µM [activator, partial curve] | 
30 | CN(C)S(=O)(=O)c1cccc(C(=O)NC2CCSc3ccccc32)c1 (centres undefined) | inconclusive: 13 µM [inhibitor, partial curve] | 
31 | CN(Cc1ccc(F)cc1)C(=O)c1ccc(NS(=O)(=O)c2ccccc2)cc1 |  | inactive: -2.55%
32 | Cc1ccc(NC(=O)CN(C)C(=O)c2cccnc2Nc2cccc(C(F)(F)F)c2)cc1 | inconclusive: 25.9 µM [inhibitor, single point] | 
33 | COc1ccc(-c2csc(-c3cccs3)n2)c(OC)c1 | inconclusive: 13 µM [activator, partial curve] | 
34 | COc1ccc(C(=O)NCc2ccc3c(c2)cc(C)n3C)cc1OC | inconclusive: 20.6 µM [inhibitor, partial curve, poor fit] | 
35 | Cc1cc(C)c(NC(=O)c2oc3ccccc3c2COc2ccccc2)c(C)c1 | inconclusive: 18.4 µM [activator, partial curve, poor fit] | 
36 | CCS(=O)(=O)C1=NN2C(=N)/C(=C\c3ccc(OC(=O)c4ccco4)c(Br)c3)C(=O)N=C2S1 |  | inactive: 19.8%
37 | CCCN(CC1CCCO1)C(=O)CCc1nnc(CCc2ccc(OC)cc2)o1 (centres undefined) | inconclusive: 23.1 µM [activator, single point] | 
38 | O=C(NCc1ccccc1CN1CCCC1)c1cccc(N2CCCC2=O)c1 | inconclusive: 7.3 µM [activator, partial curve] | 
39 | CCc1c(C)nc2cc(-c3ccccc3)[nH]n2c1=O | inconclusive: 13 µM [activator, partial curve] | 
40 | Cc1ccc(OCC(=O)Nc2ccc3c(c2)OCCO3)cc1C | inconclusive: 18.3 µM [activator, partial curve] | 
41 | COc1ccc2[nH]c(=O)c(CNc3ccccc3)cc2c1 | inconclusive: 11.6 µM [activator, partial curve, poor fit] | 
42 | COc1ccc(CCNC(=O)c2cc([N+](=O)[O-])cc([N+](=O)[O-])c2)cc1OC | inconclusive: 14.6 µM [inhibitor, partial curve] | 
43 | COc1ccccc1-c1cc(C(=O)NC2CCCC2)no1 | inconclusive: 16.4 µM [activator, partial curve] | 
44 | O=C(NCCCN1CCOCC1)c1ccc2c(c1)N(Cc1ccccc1)CCS2 |  | inactive: 26.3%
45 | O=C(CSc1ncn[nH]1)NCCOc1ccccc1 | inconclusive: 23.1 µM [activator, partial curve, poor fit] | 
46 | COc1ccc(CNC(=O)[C@H](C)N2C(=O)N3CCc4c([nH]c5ccccc45)[C@@]3(C)C2=O)cc1OC | inconclusive: 7.3 µM [inhibitor, partial curve, poor fit] | 
47 | CN(Cc1ccco1)C(=O)CSc1nc(C2CC2)n(-c2ccccc2)n1 |  | inactive: -10.9%
48 | O=S(=O)(c1ccc(F)cc1)N1CCCC(CO)C1 (centres undefined) |  | inactive: 7.17%
49 | CCCCc1c(C)nc2ccc(C(=O)OCC)cc2c1Cl | inconclusive: 20.6 µM [activator, single point] | 
50 | COc1ccc(NC(=O)c2coc3ccccc23)cc1OC | inconclusive: 11.6 µM [activator, partial curve] | 

Row | Compound | Potency | activity change, negative = inhibition
51 | CSc1ccc(C(=S)N2CCCC2)cc1 |  | inactive: 10.1%
52 | COc1ccc(S(=O)(=O)N2CCCCC2)cc1NC(=O)CSc1ncnc2ccccc12 | inconclusive: 16.4 µM [inhibitor, single point] | 
53 | CN1CCN(C(=O)/C=C/c2ccc(Cl)cc2)CC1 | inconclusive: 18.3 µM [activator, single point] | 
54 | CN(C)C(CNC(=S)Nc1cccc(Cl)c1)c1ccccc1 (centres undefined) |  | inactive: 0.682%
55 | COC(=O)N/N=C/c1cc([N+](=O)[O-])cc(Br)c1O |  | inactive: -4.03%
56 | COc1cc(C(=O)OC2CC3CCC2(C)C3(C)C)ccc1OC(C)=O (centres undefined) |  | inactive: 9.42%
57 | Cc1occc1C(=O)NNC(=S)Nc1ccccc1 | inconclusive: 6.51 µM [activator, full curve] | 
58 | Cc1ccc(-c2noc(CSc3nnc(Cc4ccccc4)n3-c3ccc(Cl)cc3)n2)cc1 |  | inactive: -14.1%
59 | Cc1ccc(-n2c(-c3ccco3)n[nH]c2=S)cc1 |  | inactive: 5.99%
60 | COc1ccc2[nH]c3c(c2c1)CCN1C(=O)C(CC(=O)NC/C=C(\C)CCC=C(C)C)C[C@H](C(=O)N2CCCCC2)[C@@]31C (some centres undefined) |  | inactive: 0.0155%
61 | O=C(CSc1ccc(-c2ccc3c(c2)OCO3)nn1)Nc1nccs1 |  | inactive: -12.7%
62 | Nc1ncnc2c1ncn2C1OC(CO)C(O)C1N (centres undefined) |  | inactive: -0.327%
63 | CC(=O)c1ccccc1C(=O)N1CCCC(C(=O)c2ccc(C(F)(F)F)cc2)C1 (centres undefined) | inconclusive: 23.1 µM [activator, single point] | 
64 | COc1ccc(-c2nc(SC(C)C(=O)Nc3ccc(NC(C)=O)cc3)n[nH]2)cc1 (centres undefined) | inconclusive: 29.1 µM [inhibitor, single point] | 
65 | c1ccc(Nc2nc(-c3ccccc3)ns2)cc1 | inconclusive: 8.2 µM [activator, partial curve] | 
66 | COc1ccc(C2=NN(C(=O)CCC(=O)O)C(c3ccc(F)cc3)C2)cc1 (centres undefined) |  | inactive: -0.867%
67 | O=C(COc1ccccc1Cl)Nc1cccnc1 | inconclusive: 14.6 µM [activator, partial curve] | 
68 | COc1cc(C=O)c(Br)cc1OCc1ccc(C)cc1 | inconclusive: 25.9 µM [activator, single point] | 
69 | CCc1ccc(NS(=O)(=O)c2cccc3nonc23)cc1 |  | inactive: 5.76%
70 | O=C(NCCC1=CCCCC1)C1CCN(S(=O)(=O)c2ccccc2C(F)(F)F)CC1 |  | inactive: 20.5%
71 | Cn1nc(-c2ccc(Cl)cc2)cc1NC(=O)Nc1ccccc1 | inconclusive: 29.1 µM [activator, single point] | 
72 | CNc1c(NS(=O)(=O)c2cc(NC(C)=O)ccc2C)c(=O)oc2ccccc12 |  | inactive: 0.383%
73 | O=C(CSc1ccccn1)Nc1ccc(Br)cn1 | inconclusive: 23.1 µM [activator, partial curve, poor fit] | 
74 | N#CCSc1n[nH]c2nc3c(c(=O)n12)C1(CCCC1)Cc1ccccc1-3 | inconclusive: 16.4 µM [inhibitor, single point] | 

In the list so far, four have a CF3 group:
Row | Compound | Potency | activity change, negative = inhibition
8 | O=C(NCC1CCCO1)c1cnn2c1NC(c1ccccc1)CC2C(F)(F)F (centres undefined) |  | inactive: -13.7%
32 | Cc1ccc(NC(=O)CN(C)C(=O)c2cccnc2Nc2cccc(C(F)(F)F)c2)cc1 | inconclusive: 25.9 µM [inhibitor, single point] | 
63 | CC(=O)c1ccccc1C(=O)N1CCCC(C(=O)c2ccc(C(F)(F)F)cc2)C1 (centres undefined) | inconclusive: 23.1 µM [activator, single point] | 
70 | O=C(NCCC1=CCCCC1)C1CCN(S(=O)(=O)c2ccccc2C(F)(F)F)CC1 |  | inactive: 20.5%

From PubChem BioAssay AID504467 (National Center for Advancing Translational Sciences (NCATS), 2011)
